Data as given in PubChem BioAssay AID624297 (National Center for Advancing Translational Sciences (NCATS), 2012).
Where “and” joins values, the source holds several entries; their conditions need not be identical. Identical values can stand only once. Among all 340,000 compounds or so, about 6,200 (1.8%) were called active. The shares of active, inactive and inconclusive entries below differ from those in the screen. Calls follow the shape of the dose curve; as a rule, active = well fitted activation curve with a large enough effect; inconclusive = small, poorly fitted or top-dose-only effect; inactive = no such curve, though single readings can be large or run the other way. A potency beside an inconclusive call is a rough fit, not a confirmed value.

Assay: A quantitative high throughput screen for small molecules that induce DNA re-replication in SW480 colon adenocarcinoma cells. Also: nearly all actives have a fitted effect of over 55% in size. As to re-replication activation: % of control where 0% means no effect.
Conditions: Hoechst DNA content imaging, 48 h; re-replication activation: at 46.1 µM (top of the series)
Summary of the method: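 Readout is total intensity of Hoechst-stained nuclei, excited at 405 nm and collected at 500-530 nm. Compound treatment lasted 48 hr at 37 C in 5% CO2 before staining.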
Potency is read from the fitted curve at half-maximal effect.

Row | Structure (SMILES) | Potency | re-replication activation
1 | O=C(Nc1ccc(Cl)cc1)Nc1nccs1 | active: 5.8 µM | 
2 | Cc1cc(C)c(Cn2c(C(=O)O)c(C=O)c3ccccc32)c(C)c1 | inconclusive: 18.4 µM [activator, single point] | 
3 | Cc1ncc(CN2CCCC(C(=O)c3cccc(Cl)c3)C2)s1 (stereo unspecified) | inactive | 
4 | O=C(/C=C/c1ccc(F)cc1)NNC(=O)CCN1CCN(Cc2ccccc2)CC1 | inconclusive: 1.16 µM [activator, full curve] | 
5 | COCC(C)OC(=O)c1c(N)n(Cc2ccco2)c2nc3ccccc3nc12 (stereo unspecified) | inactive | 
6 | CC(C)(C)C(=O)O[C@H]1CC[C@@]2(C)C(=CC(=O)C3C2CC[C@]2(C)C(=O)[C@@H](F)CC32)C1 (stereo partly specified) | inconclusive: 29.1 µM [activator, single point] | 
7 | C[N+]1(C)CCN(c2ccccc2)CC1 | inconclusive: 16.4 µM [activator, single point] | 
8 | COc1ccc(-c2nn(CCC#N)cc2C(=O)Nc2ccccc2Br)cc1[N+](=O)[O-] | inconclusive: 0.58 µM [activator, full curve, poor fit] | 
9 | O=C(Cc1ccccc1)N1CCN(CC2CC=CCC2)CC1 (stereo unspecified) | inactive | 
10 | CCC1(c2ccc(N)cc2)CCC(=O)NC1=O (stereo unspecified) | inactive | 
11 | COC(=O)C1=C(c2ccc(F)cc2F)C[C@@H]2CC[C@H]1N2C(=O)NCCOc1ccccc1Cl | inactive | 
12 | Nc1c(C(=O)NC2CCCC2)c2nc3ccccc3nc2n1CC1CCCO1 (stereo unspecified) | active: 14.6 µM | 
13 | CCCCCCn1c(=O)c(C(=O)Nc2ncccc2C)c(O)c2ccccc21 | inconclusive: 20.6 µM [activator, partial curve, poor fit] | 
14 | O=C1CN=C(c2ccccc2)c2cc(Cl)ccc2N1 | inactive | 
15 | O=C(/C=C/c1ccccc1)NC(=S)N1C[C@H]2C[C@H](C1)c1cccc(=O)n1C2 | inconclusive: 3.26 µM [activator, partial curve, poor fit] | 
16 | CCOC(=O)[C@]12Cc3cc(C)ccc3[C@H]1N(Cc1ccccc1)C(=O)c1ccccc12 |  | inactive: 3.81% [at 9.22 µM]
17 | CC(C(=O)O)N(C(=O)c1ccccc1)c1ccc(F)c(Cl)c1 (stereo unspecified) | inconclusive: 3.66 µM [activator, partial curve, poor fit] | 
18 | CCCCCC1CC(CC(=O)NC(=S)Nc2ccc([N+](=O)[O-])cc2)C(=O)O1 (stereo unspecified) | inconclusive: 29.1 µM [activator, partial curve, poor fit] | 
19 | O=c1[nH]c(=O)n(-c2ccc(Br)cc2)c(O)c1C=NC(CO)(CO)CO | inactive | 
20 | CCCCn1c(O)c(C(C)=NCc2ccc(F)cc2)c(=O)[nH]c1=O | inactive | 
21 | O=C1NC(=O)N(c2ccc3c(c2)OCO3)C(=O)/C1=C/c1ccc(N2CCCC2)o1 | inconclusive: 0.13 µM [activator, full curve, poor fit] | 
22 | CCOC(=O)c1ccc(NC(c2ccc(N(C)C)cc2)P(=O)(OC(C)C)OC(C)C)cc1 (stereo unspecified) | inconclusive: 23.1 µM [activator, single point] | 

Row | Structure (SMILES) | Potency | re-replication activation
23 | CC(=O)O[C@@H]1/C=C/[C@](C)(O)C[C@@H](C)C/C=C/[C@H]2[C@@H]3O[C@]3(C)[C@@H](C)[C@H]3[C@H](Cc4ccccc4)NC(=O)[C@@]312 | active: 2.59 µM | 
24 | C[C@]12CCC3C(CC[C@H]4C[C@@H](O)CC[C@]34C)[C@H]1C=CC2=O (stereo partly specified) | inconclusive: 23.1 µM [activator, single point] | 
25 | COC(=O)C1=C(c2ccc3ccccc3c2)C[C@@H]2CC[C@H]1N2C(=O)N1CCCCC1 | inconclusive: 29.1 µM [activator, single point] | 
26 | COc1ccc(C(=O)Nc2cc(Cl)ccc2C(=O)O)cc1 | inconclusive: 5.8 µM [activator, full curve, poor fit] | 
27 | CC(Cc1ccsc1)NCc1cn[nH]c1-c1ccc(F)cc1F (stereo unspecified) | inactive | 
28 | CCOCN(C(=O)CCl)c1c(C)cccc1CC | inconclusive: 11.6 µM [activator, single point] | 
29 | Cc1cc(C=C2C(=O)N(C)C(=S)N(C)C2=O)c(C)n1C1CCCCC1 | inactive | 
30 | O=C1NC2C(=CC(O)C(O)C2O)c2cc3c(c(O)c21)OCO3 (stereo unspecified) | inconclusive: 10.3 µM [activator, partial curve, poor fit] | 
31 | Fc1ccc(C(OCCN2CCN(CCCc3ccccc3)CC2)c2ccc(F)cc2)cc1 | inconclusive: 18.8 µM [activator, partial curve, poor fit] and inconclusive: 5.8 nM [activator, full curve, poor fit] | 
32 | Clc1ccc(OCC#CCN2CCCCCC2)cc1 | inactive | 
33 | O=C(N/N=C/c1c(O)n(CCc2ccccc2)c(=O)[nH]c1=O)c1ccccc1 | inconclusive: 29.1 µM [activator, single point] | 
34 | COC(=O)C1=CCCN(C)C1 | inconclusive: 0.461 µM [activator, single point] | 
35 | C=C(C)[C@H]1Cc2c(ccc3c2O[C@@H]2COc4cc(OC)c(OC)cc4[C@@H]2C3=O)O1 | inconclusive: 15 µM [activator, single point] and inconclusive: 1.41 µM [activator, full curve, poor fit] | 
36 | COP(=O)(OC)c1nc(-c2cccc3ccccc23)oc1N1CCCCC1 | inconclusive: 29.1 µM [activator, single point] | 
37 | CCOC(=O)c1c(NS(=O)(=O)c2ccccc2)n(CCCOC)c2nc3ccccc3nc12 | inconclusive: 29.1 µM [activator, single point] | 
38 | O=C(Cn1cc(C(=O)c2ccccc2)c2ccccc21)NCc1ccco1 | inconclusive: 29.1 µM [activator, single point] | 
39 | Cc1c(OCC(F)(F)F)ccnc1CS(=O)c1nc2ccccc2[nH]1 (stereo unspecified) | inconclusive: 1.26 µM [activator, single point] | 
40 | Nc1c(Br)cc2c3c(cccc13)-c1ccccc1-2 | inconclusive: 23.1 µM [activator, single point] | 
41 | O=C(NN=Cc1ccc(N(CCCl)CCCl)cc1)c1cccnc1 | inconclusive: 23.1 µM [activator, single point] | 
42 | COC(=O)C1=CO[C@@H](OC2OC(CO)C(O)C(O)C2O)[C@@H]2C(CO)=CC[C@H]12 (stereo partly specified) | inactive | 
43 | COC(=O)C[C@]1(C(=O)OC)CN(C#N)N(c2ccc(Cl)cc2)C12c1ccccc1-c1ccccc12 | inconclusive: 4.61 µM [activator, partial curve, poor fit] | 
44 | Cc1ccc(C(=O)N[C@@H](C)CN2C3=NC[C@@H](Cc4ccccc4)N3C[C@H]2Cc2ccc(O)cc2)cc1Br | inactive | 

Row | Structure (SMILES) | Potency | re-replication activation
45 | Cc1ccc(NS(=O)(=O)c2c(F)cc(F)c(Cl)c2F)cc1S(=O)(=O)N1CCOCC1 | inconclusive: 32.6 µM [activator, partial curve, poor fit] | 
46 | CN(Cc1ccc(OC(F)F)cc1)Cc1nc2c(Br)cc(Br)cc2c(=O)[nH]1 | inconclusive: 29.1 µM [activator, single point] | 
47 | CN1CCN(c2ccc([N+](=O)[O-])c(N)c2)CC1 | inconclusive: 20.6 µM [activator, single point] | 
48 | Cc1ccccc1-n1c(C)nc2ccsc2c1=O | inconclusive: 29.1 µM [activator, single point] | 
49 | COc1ccc(CCNCc2cccn2C)cc1 | inconclusive: 0.0052 µM [activator, full curve, poor fit] | 
50 | COc1cc(C)c(CNCCc2c[nH]c3ccccc23)cc1C |  | inconclusive: 143% [activator]
51 | CC1CC(NC(=O)C2C3CCC(O3)C2C(=O)O)CC(C)(C)C1 (stereo unspecified) | inconclusive: 20.6 µM [activator, single point] | 
52 | CCc1ccc(N2C(=O)NC(=O)/C(=C/c3cccn3CCOc3ccc(C)cc3)C2=O)cc1 | inconclusive: 29.1 µM [activator, single point] | 
53 | Cc1ccc(OCC(=O)NCCN2CCN(C(=O)COc3ccc(C)cc3)CC2)cc1 | inactive | 
54 | Cc1ccc(C)c(N2CCN(S(=O)(=O)c3ccc4c(c3)oc(=O)n4C)CC2)c1 | inconclusive: 4.11 µM [activator, full curve, poor fit] | 
55 | COc1ccc(Cc2nccc3cc(OC)c(OC)cc23)cc1OC | inconclusive: 0.112 µM [activator, full curve, poor fit] | 
56 | Cc1ccc(CN2CCCN(Cc3ccccc3C)S2(=O)=O)cc1 | inconclusive: 29.1 µM [activator, single point] | 
57 | CC12CC[C@H]3[C@@H](CCC4(O)C[C@H](O)CCC34/C=N/NC(=O)c3ccccc3Cl)C1(O)CCC2C1=CC(=O)OC1 (stereo partly specified) | inactive | 
58 | CN(C)CC1CCCCC1=O (stereo unspecified) | inconclusive: 18.4 µM [activator, single point] | 
59 | O=[N+]([O-])c1ccc(N2CC2)c([N+](=O)[O-])c1 | inactive | 
60 | O=C(O)c1c[nH]c2ccc(S(=O)(=O)N(CCCl)CCCl)cc12 | inactive | 
61 | O=c1[nH]c(=O)n(CCC2=CCCCC2)c(O)c1/C=N/Nc1cccc2ccccc12 | inconclusive: 0.731 µM [activator, partial curve, poor fit] | 
62 | Clc1ccc([C@@H](OCCN2CCCCC2)c2ccccc2)cc1 | inactive | 
63 | Fc1ccc(CNCCc2ccccc2)cc1 | inactive | 
64 | O=C(N/N=C/c1c(O)n(CCC2=CCCCC2)c(=S)[nH]c1=O)c1ccccc1 | inconclusive: 20.6 µM [activator, single point] | 
65 | CCCc1nc2ccc(Br)cc2c(=O)n1-c1ccc([N+](=O)[O-])c(C(F)(F)F)c1 | inconclusive: 23.1 µM [activator, single point] | 
66 | COc1cc(C(=O)N/N=C/c2ccc(OC(=O)N3CCOCC3)cc2)cc(OC)c1OC | active: 20.6 µM | 
